Taken from: PubChem BioAssay AID504791 (Drosophila RNAi Screening Center, 2011)

- Purpose: 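Genes whose knock-down strengthens or weakens small-RNA reporter silencing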 (primary screen)
- Cells: Drosophila S2-derived reporter cells
- Reagents: long dsRNA against Drosophila genes, about 150-250 ng dsRNA per well (siRNA assay); about 80-120 ng (miRNA assay)
- Timing: about 5 days (siRNA assay); about 4 days (miRNA assay)
- Treatment: copper sulfate induction of reporters: 25 µM (siRNA assay); 200 mM stated (miRNA assay), 1-2 days before reading
- Detection: 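Per-well ratio of Renilla over firefly light, expressed relative to that plate's average ratio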
- Units: stable assay Renilla, run 1 in luminescence; stable assay firefly, run 1 in luminescence
- Call rule: 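First-pass picks had plate-scaled ratios over 1.5 for the siRNA assay, over 1.6 for the miRNA assay, or under 0.6; two distinct dsRNAs had to score alike on retest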
The deposit covers about 23,000 reagents; shown is a random part of those with a known target gene and a result. Over the whole deposit, 199 (0.86%) got an active call. 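Plate-scaled ratios behind the calls are not deposited; printed light signals are raw; many rows marked increased or decreased are still called inactive.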 Entries without a mark were called inactive. Not stated in the record: the direction of the score.

{"predicted target": "CG11068", "amplicon": "DRSC19369", "stable assay Renilla, run 1": 5560, "stable assay firefly, run 1": 3.75e5}
{"predicted target": "Kif3C (Kinesin family member 3C)", "amplicon": "DRSC17209", "stable assay Renilla, run 1": 6375, "stable assay firefly, run 1": 3.92e5}
{"predicted target": "Kif3C (Kinesin family member 3C)", "amplicon": "DRSC17210", "stable assay Renilla, run 1": 5639, "stable assay firefly, run 1": 4.14e5}
{"predicted target": "Map60 (Microtubule-associated protein 60)", "amplicon": "DRSC07464", "stable assay Renilla, run 1": 8064, "stable assay firefly, run 1": 3.66e5}
{"predicted target": "CG42458", "amplicon": "DRSC10335", "stable siRNA reporter change": "reporter ratio raised past the hit cutoff", "stable assay Renilla, run 1": 6919, "stable assay firefly, run 1": 2.10e5}
{"predicted target": "CG42458", "amplicon": "DRSC23129", "stable assay Renilla, run 1": 4744, "stable assay firefly, run 1": 2.75e5}
{"predicted target": "CG42458", "amplicon": "DRSC23261", "stable assay Renilla, run 1": 4803, "stable assay firefly, run 1": 4.60e5}
{"predicted target": "Tsp5D (Tetraspanin 5D)", "amplicon": "DRSC18380", "stable assay Renilla, run 1": 5546, "stable assay firefly, run 1": 3.08e5}
{"predicted target": "lky (leaky)", "amplicon": "DRSC20682", "stable assay Renilla, run 1": 4775, "stable assay firefly, run 1": 3.21e5}
{"predicted target": "hlk (hulk)", "amplicon": "DRSC05021", "stable assay Renilla, run 1": 5662, "stable assay firefly, run 1": 3.29e5}
{"predicted target": "hlk (hulk)", "amplicon": "DRSC05022", "stable assay Renilla, run 1": 5618, "stable assay firefly, run 1": 4.29e5}
{"predicted target": "CG31157", "amplicon": "DRSC21832", "stable assay Renilla, run 1": 8053, "stable assay firefly, run 1": 5.79e5}
{"predicted target": "CG30091", "amplicon": "DRSC21809", "stable assay Renilla, run 1": 8946, "stable assay firefly, run 1": 3.95e5}
{"predicted target": "CG12384", "amplicon": "DRSC06145", "stable siRNA reporter change": "reporter ratio raised past the hit cutoff", "stable assay Renilla, run 1": 3424, "stable assay firefly, run 1": 3.69e5}
{"predicted target": "GstD9 (Glutathione S transferase D9)", "amplicon": "DRSC14185", "stable assay Renilla, run 1": 6742, "stable assay firefly, run 1": 4.05e5}
{"predicted target": "Tpst (Tyrosylprotein sulfotransferase)", "amplicon": "DRSC18989", "stable siRNA reporter change": "reporter ratio lowered past the hit cutoff", "stable assay Renilla, run 1": 4179, "stable assay firefly, run 1": 5.58e5}
{"predicted target": "Tpst (Tyrosylprotein sulfotransferase)", "amplicon": "DRSC19696", "stable assay Renilla, run 1": 6888, "stable assay firefly, run 1": 5.55e5}
{"predicted target": "Tpst (Tyrosylprotein sulfotransferase)", "amplicon": "DRSC19723", "stable assay Renilla, run 1": 5023, "stable assay firefly, run 1": 4.41e5}
{"predicted target": "Tpst (Tyrosylprotein sulfotransferase)", "amplicon": "DRSC19724", "stable assay Renilla, run 1": 4414, "stable assay firefly, run 1": 3.81e5}
{"predicted target": "Tpst (Tyrosylprotein sulfotransferase)", "amplicon": "DRSC22621", "stable assay Renilla, run 1": 4163, "stable assay firefly, run 1": 4.26e5}

2 entries from above, showing only “stable assay Renilla, run 1”.
Kif3C (Kinesin family member 3C) [DRSC17209] = 6375
Kif3C (Kinesin family member 3C) [DRSC17210] = 5639
